Experiment: HPLC/DAD/MS analysis of reaction partners and MRI (Amadori) products
Format: physicochemical
Details: Phe + Reb-A, Reb-B from degraded Reb-A, MRIs from degraded Phe
Description: Quantitative evaluation was performed using external standardization.

C=C1CC23CCC4C(C)(C(=O)O)CCCC4(C)C2CCC1(OC1OC(CO)C(O)C(OC2OC(CO)C(O)C(O)C2O)C1OC1OC(CO)C(O)C(O)C1O)C3 (stereo not drawn) [Reb-B, Rebaudioside B]
% formation (pH = 5.5): 23.1%
% formation (pH = 7.0): 22.7%
% formation (pH = 8.5): 19.1%
